Test results taken from article PMC6525239, “Hexameric NuMA:LGN structures promote multivalent interactions required for planar epithelial divisions” (Nature Communications, 2019).
Results are given in words; binding and its absence hold for the method and conditions named. Binding seen in cells or lysates may run through a third protein. Some results given as binding are weak or reduced against the parent protein; the word gives no strength. Tags and fused reporters may be left off the sequences shown.

T1: LGN wild-type, expressed in HEK293T cells as two differently tagged copies (human) (UniProt P81274)
T1 sequence: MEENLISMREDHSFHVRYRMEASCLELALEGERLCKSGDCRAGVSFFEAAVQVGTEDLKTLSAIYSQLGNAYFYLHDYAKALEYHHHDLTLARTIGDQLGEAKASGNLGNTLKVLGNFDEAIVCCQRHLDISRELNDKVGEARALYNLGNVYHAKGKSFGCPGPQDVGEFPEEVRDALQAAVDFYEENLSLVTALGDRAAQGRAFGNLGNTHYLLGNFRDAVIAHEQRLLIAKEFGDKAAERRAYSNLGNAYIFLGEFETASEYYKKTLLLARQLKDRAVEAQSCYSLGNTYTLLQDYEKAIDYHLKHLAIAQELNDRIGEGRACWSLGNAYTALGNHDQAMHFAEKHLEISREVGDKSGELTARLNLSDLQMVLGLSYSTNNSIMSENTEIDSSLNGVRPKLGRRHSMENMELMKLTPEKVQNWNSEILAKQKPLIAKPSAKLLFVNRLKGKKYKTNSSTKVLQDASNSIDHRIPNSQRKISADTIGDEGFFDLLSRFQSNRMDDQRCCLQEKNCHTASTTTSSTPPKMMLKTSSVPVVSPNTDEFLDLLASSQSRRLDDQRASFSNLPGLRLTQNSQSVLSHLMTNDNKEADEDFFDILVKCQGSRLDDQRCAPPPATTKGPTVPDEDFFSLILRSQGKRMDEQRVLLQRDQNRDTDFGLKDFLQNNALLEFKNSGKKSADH


Biological target: T1, LGN wild-type, expressed in HEK293T cells as two differently tagged copies (human)
Experiment: co-IP; mitotic (nocodazole) lysates of HEK293T cells depleted of endogenous NuMA and expressing NuMA^1821–2115, co-transfected with GFP- and 3xFLAG-tagged LGN; anti-GFP agarose beads, 2 h at 4 °C; immunoblot

binding	Binder
binds	LGN wild-type, expressed in HEK293T cells as two differently tagged copies (protein, UniProt P81274 1-684) MEENLISMREDHSFHVRYRMEASCLELALEGERLCKSGDCRAGVSFFEAAVQVGTEDLKTLSAIYSQLGNAYFYLHDYAKALEYHHHDLTLARTIGDQLGEAKASGNLGNTLKVLGNFDEAIVCCQRHLDISRELNDKVGEARALYNLGNVYHAKGKSFGCPGPQDVGEFPEEVRDALQAAVDFYEENLSLVTALGDRAAQGRAFGNLGNTHYLLGNFRDAVIAHEQRLLIAKEFGDKAAERRAYSNLGNAYIFLGEFETASEYYKKTLLLARQLKDRAVEAQSCYSLGNTYTLLQDYEKAIDYHLKHLAIAQELNDRIGEGRACWSLGNAYTALGNHDQAMHFAEKHLEISREVGDKSGELTARLNLSDLQMVLGLSYSTNNSIMSENTEIDSSLNGVRPKLGRRHSMENMELMKLTPEKVQNWNSEILAKQKPLIAKPSAKLLFVNRLKGKKYKTNSSTKVLQDASNSIDHRIPNSQRKISADTIGDEGFFDLLSRFQSNRMDDQRCCLQEKNCHTASTTTSSTPPKMMLKTSSVPVVSPNTDEFLDLLASSQSRRLDDQRASFSNLPGLRLTQNSQSVLSHLMTNDNKEADEDFFDILVKCQGSRLDDQRCAPPPATTKGPTVPDEDFFSLILRSQGKRMDEQRVLLQRDQNRDTDFGLKDFLQNNALLEFKNSGKKSADH
binds	NuMA^1821–2115 (domain or fragment, UniProt Q14980 1821-2115) KKLDVEEPDSANSSFYSTRSAPASQASLRATSSTQSLARLGSPDYGNSALLSLPGYRPTTRSSARRSQAGVSSGAPPGRNSFYMGTCQDEPEQLDDWNRIAELQQRNRVCPPHLKTCYPLESRPSLSLGTITDEEMKTGDPQETLRRASMQPIQIAEGTGITTRQQRKRVSLEPHQGPGTPESKKATSCFPRPMTPRDRHEGRKQSTTEAQKKAAPASTKQADRRQSMAFSILNTPKKLGNSLLRRGASKKALSKASPNTRSGTRRSPRIATTTASAATAAAIGATPRAKGKAKH
